Data set [1] can be described thus: Thermal transfer recording, color development strength and tone. The settings on record: for Color development strength: thermal head 10 V, 4.0 m.sec., densitometer RD-914; for Color tone: thermal transfer recorded image.
Data set [2] is described as follows: Electrophotographic toner copying test and xenon lamp lightfastness of copied images. The settings on record: for Ratio of retention of color density: toner copied images, xenon lamp, black panel 63° C., 100 hours; for Color tone: toner, Table 10.
The nature of data set [3]: Color filter color tone, transparency and lightfastness. The settings on record: for Color tone and transparency of color filter: 3 parts dye in 97 parts polymethyl methacrylate; for Lightfastness of color filter: xenon lamp, black panel 63° C.
Data set [4] can be described thus: Reflectance of optical recording medium. The note with it: 770 nm to 800 nm, recording layer on polycarbonate, gold reflecting layer.

As to `CCCCOc1c(Nc2c(CC)ccc(Cl)c2CC)c(Nc2c(CC)ccc(Cl)c2CC)c(F)c2c1C(=O)c1c(O)ccc(O)c1C2=O` [(160)], in data set [1], the Color development strength is 2.34 and the Color tone entry is listed as “Cyan”. Further, in data set [2], the “Ratio of retention of color density” value is 94% and the Color tone result was “Cyan”.

`CCCCCCCCOc1c(F)c2c(c(F)c1Nc1ccc(C(=O)OCCCC)cc1)C(=O)c1c(O)ccc(O)c1C2=O` [(36)]: in data set [1], the Color development strength amounted to 2.39 and the Color tone result is listed as “Magenta”. In addition, in data set [2], the “Ratio of retention of color density” value came out at 92% and the Color tone result is “Magenta”.

With `O=C1c2c(O)ccc(O)c2C(=O)c2c(F)c(Nc3c(Cl)cccc3Cl)c(F)c(F)c21` [(22)], in data set [3], the “Color tone and transparency of color filter” value was “clear magenta color tone showing no sign of turbidity and diffusing a sensation of transparency”; the “Lightfastness of color filter” value is on record as “absolutely no sign of change in color tone”. In data set [1], the Color development strength was 2.25 and the Color tone result is reported as “Magenta”. Besides, in data set [2], the “Ratio of retention of color density” value is recorded as 94% and the Color tone result is recorded as “Magenta”.

In the case of `CCCCCCCCOc1c(F)c2c(c(F)c1Nc1ccc(C(=O)OCC)cc1)C(=O)c1c(O)ccc(O)c1C2=O` [(33)], in data set [1], the Color development strength is listed as 2.42 and the Color tone entry is “Magenta”. In data set [2], the “Ratio of retention of color density” value is 91% and the Color tone result is reported as “Magenta”.

Consider `CCCCCCCCOc1c(F)c2c(c(F)c1Nc1ccc(C#N)cc1)C(=O)c1c(O)ccc(O)c1C2=O` [(45)], for which, in data set [1], the Color development strength is reported as 2.54 and the Color tone entry is given as “Magenta”. Further, in data set [2], the “Ratio of retention of color density” value was determined as 94% and the Color tone entry was “Magenta”.

With `CCCCCCCCOc1c(F)c2c(c(F)c1Nc1c(CC)cccc1CC)C(=O)c1c(O)ccc(O)c1C2=O` [(51)], in data set [1], the Color development strength is recorded as 2.58 and the Color tone entry is recorded as “Magenta”. For the same molecule, in data set [2], the “Ratio of retention of color density” value stood at 90% and the Color tone result was “Magenta”.

On to `CCCCOc1c(Nc2c(C)cccc2C(=O)OCC)c(Nc2c(C)cccc2C(=O)OCC)c(F)c2c1C(=O)c1c(O)ccc(O)c1C2=O` [(162)], for which, in data set [1], the Color development strength is recorded as 2.37 and the Color tone result was “Cyan”. In addition, in data set [2], the “Ratio of retention of color density” value is reported as 93% and the Color tone result is given as “Cyan”.

Take `CCc1cccc(CC)c1Nc1c(F)c2c(c(F)c1Nc1c(CC)cccc1CC)C(=O)c1c(O)ccc(O)c1C2=O` [(137)]: in data set [1], the Color development strength is listed as 2.39 and the Color tone entry was “Cyan”. Moreover, in data set [2], the “Ratio of retention of color density” value worked out at 95% and the Color tone result was “Cyan”.

For `CCCCCCCCOc1c(Nc2c(CC)ccc(Cl)c2CC)c(Nc2c(CC)ccc(Cl)c2CC)c(F)c2c1C(=O)c1c(O)ccc(O)c1C2=O` [(161)], in data set [2], the “Ratio of retention of color density” value is listed as 95% and the Color tone result is recorded as “Cyan”.

Regarding `CC(C)c1cccc(C(C)C)c1Nc1c(F)c2c(c(F)c1Nc1c(C(C)C)cccc1C(C)C)C(=O)c1c(O)ccc(O)c1C2=O` [(139)], in data set [3], the “Color tone and transparency of color filter” value was “clear cyanogen color tone showing no sign of turbidity and diffusing a sensation of transparency”; the “Lightfastness of color filter” value is listed as “absolutely no sign of change in color tone”. For the same molecule, in data set [1], the Color development strength came to 2.42 and the Color tone entry is “Cyan”. In data set [2], the “Ratio of retention of color density” value stood at 94% and the Color tone entry is recorded as “Cyan”.

Turning to `CC(C)c1cccc(C(C)C)c1Nc1c(F)c2c(c(Nc3c(C(C)C)cccc3C(C)C)c1Nc1c(C(C)C)cccc1C(C)C)C(=O)c1c(O)ccc(O)c1C2=O` [Dye (245), 5,6,7-tris(2,6-diisopropylanilino)-8-fluoroquinizarin], the Reflectance in data set [4] turned out to be 71%.

For the molecule `O=C1c2ccc(Nc3c(Cl)cccc3Cl)cc2C(=O)c2c(O)ccc(O)c21` [(102)], in data set [1], the Color development strength came out at 2.12 and the Color tone entry is “Magenta”. In data set [2], the “Ratio of retention of color density” value amounted to 92% and the Color tone result is reported as “Magenta”.

Regarding `CCCCCCCCOc1c(Nc2c(C)cccc2C(=O)OCC)c(Nc2c(C)cccc2C(=O)OCC)c(F)c2c1C(=O)c1c(O)ccc(O)c1C2=O` [(163)], in data set [2], the “Ratio of retention of color density” value is recorded as 92% and the Color tone result is on record as “Cyan”.

Consider `CCCCCCCCSc1c(Nc2c(C(C)C)cccc2C(C)C)c(NCCCC)c(F)c2c1C(=O)c1c(O)ccc(O)c1C2=O` [Dye (239), 6-(2,6-diisopropylanilino)-7-butylamino-5-octylthio-8-fluoroquinizarin], for which the Reflectance entry in data set [4] is reported as “not less than 70%”.

`CCCCCCCCSc1c(Nc2c(OCC)cccc2OCC)c(Nc2c(OCC)cccc2OCC)c(F)c2c1C(=O)c1c(O)ccc(O)c1C2=O` [Dye (233), 6,7-bis(2,6-diethoxyanilino)-5-octylthio-8-fluoroquinizarin]: in data set [4], the Reflectance entry is on record as “not less than 70%”.

Turning to `CCCCCCCCOc1c(Nc2ccc(C(=O)OCC)cc2)c(Nc2ccc(C(=O)OCC)cc2)c(F)c2c1C(=O)c1c(O)ccc(O)c1C2=O` [(157)], in data set [2], the “Ratio of retention of color density” value was determined as 96% and the Color tone result is “Cyan”.

As to `CCCCOc1c(Nc2c(CC)cccc2CC)c(Nc2c(CC)cccc2CC)c(F)c2c1C(=O)c1c(O)ccc(O)c1C2=O` [(158)], in data set [1], the Color development strength stood at 2.43 and the Color tone entry is reported as “Cyan”. Also, in data set [2], the “Ratio of retention of color density” value worked out at 92% and the Color tone entry is listed as “Cyan”.

Regarding `CCCCCCCCOc1c(F)c2c(c(F)c1Nc1ccc([N+](=O)[O-])cc1)C(=O)c1c(O)ccc(O)c1C2=O` [(41)], in data set [1], the Color development strength amounted to 2.61 and the Color tone result is on record as “Magenta”. In data set [2], the “Ratio of retention of color density” value worked out at 95% and the Color tone result was “Magenta”.

Take `CCOc1cccc(OCC)c1Nc1c(F)c2c(c(Sc3ccccc3)c1Nc1c(OCC)cccc1OCC)C(=O)c1c(O)ccc(O)c1C2=O` [Dye (234), 6,7-bis(2,6-diethoxyanilino)-5-phenylthio-8-fluoroquinizarin]: in data set [4], the Reflectance result is listed as “not less than 70%”.

As for `CCc1ccc(Cl)c(CC)c1Nc1c(F)c2c(c(F)c1Nc1c(CC)ccc(Cl)c1CC)C(=O)c1c(O)ccc(O)c1C2=O` [(141)], in data set [1], the Color development strength is given as 2.35 and the Color tone result is on record as “Cyan”.

With `CCCCOc1c(Nc2c(C(C)C)cccc2C(C)C)c(Nc2c(C(C)C)cccc2C(C)C)c(F)c2c1C(=O)c1c(O)ccc(O)c1C2=O` [(159)], in data set [1], the Color development strength was 2.36 and the Color tone result is reported as “Cyan”. In addition, in data set [2], the “Ratio of retention of color density” value is 93% and the Color tone result is on record as “Cyan”.

For the molecule `CCCCCCCCOc1c(Nc2cccc(C(=O)OCC)c2)c(Nc2cccc(C(=O)OCC)c2)c(F)c2c1C(=O)c1c(O)ccc(O)c1C2=O` [(156)], in data set [1], the Color development strength came to 2.28 and the Color tone result is recorded as “Cyan”. In addition, in data set [2], the “Ratio of retention of color density” value is recorded as 95% and the Color tone entry is on record as “Cyan”.

For `CCCCCCCCSc1c(Nc2c(C(C)C)cccc2C(C)C)c(Nc2c(C(C)C)cccc2C(C)C)c(F)c2c1C(=O)c1c(O)ccc(O)c1C2=O` [Dye (232), 6,7-bis(2,6-diisopropylanilino)-5-octylthio-8-fluoroquinizarin], the Reflectance entry in data set [4] was “not less than 70%”.

Consider `CCCCCCCCOc1c(Nc2c(Cl)cccc2Cl)c(Nc2c(Cl)cccc2Cl)c(F)c2c1C(=O)c1c(O)ccc(O)c1C2=O` [(183)], for which, in data set [1], the Color development strength turned out to be 2.14 and the Color tone entry is recorded as “Cyan”.

Regarding `CCCCCCCCSc1c(Nc2c(OCC)cccc2OCC)c(NCCCC)c(F)c2c1C(=O)c1c(O)ccc(O)c1C2=O` [Dye (240), 6-(2,6-diethoxyanilino)-7-butylamino-5-octylthio-8-fluoroquinizarin], in data set [4], the Reflectance entry is “not less than 70%”.

On to `CCCCNc1c(F)c2c(c(Sc3ccccc3)c1Nc1c(OCC)cccc1OCC)C(=O)c1c(O)ccc(O)c1C2=O` [Dye (241), 6-(2,6-diethoxyanilino)-7-butylamino-5-phenylthio-8-fluoroquinizarin], for which, in data set [4], the Reflectance result was “not less than 70%”.

(Values after US5608091A, “Quinizarin compound, method for production thereof, and use therefor” (Nippon Shokubai Co., Ltd., priority 1993, dated 1997).)
